Results are given in words; binding and its absence hold for the method and conditions named. In cells and extracts the contact can be indirect. A yes stands for co-enrichment or nearness to the bait. Other partners may have been found.
Biological target: T1, Semaphorin 3d (human (endogenous in PLC/PRF/5; cDNA of the lentiviral construct in HCCLM3 not stated)) (UniProt O95025)
T1 sequence: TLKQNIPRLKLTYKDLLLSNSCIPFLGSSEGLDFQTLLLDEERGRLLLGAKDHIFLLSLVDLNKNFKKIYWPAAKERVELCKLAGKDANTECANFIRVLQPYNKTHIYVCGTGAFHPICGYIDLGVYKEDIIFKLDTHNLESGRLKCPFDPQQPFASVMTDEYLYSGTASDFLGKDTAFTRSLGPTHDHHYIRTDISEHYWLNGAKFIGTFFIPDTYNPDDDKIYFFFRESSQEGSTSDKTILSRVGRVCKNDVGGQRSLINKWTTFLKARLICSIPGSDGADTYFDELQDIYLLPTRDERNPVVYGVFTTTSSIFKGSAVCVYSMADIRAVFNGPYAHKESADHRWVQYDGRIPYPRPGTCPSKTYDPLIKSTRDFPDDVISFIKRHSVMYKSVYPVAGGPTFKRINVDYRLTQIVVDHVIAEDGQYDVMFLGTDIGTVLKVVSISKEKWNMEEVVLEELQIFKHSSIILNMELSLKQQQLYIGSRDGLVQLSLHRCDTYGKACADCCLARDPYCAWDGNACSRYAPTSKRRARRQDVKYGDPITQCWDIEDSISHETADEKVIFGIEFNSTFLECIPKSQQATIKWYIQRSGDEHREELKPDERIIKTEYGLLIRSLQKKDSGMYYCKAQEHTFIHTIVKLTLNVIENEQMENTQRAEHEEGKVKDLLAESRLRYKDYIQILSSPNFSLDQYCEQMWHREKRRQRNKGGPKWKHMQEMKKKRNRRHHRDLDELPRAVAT
Assay: affinity purification with mass spectrometry; co-IP with an anti-Sema3d antibody from Sema3d high-expressed HCC cells (HCCLM3 Sema3d; text also names PLC/PRF/5 shCtr), precipitate identified by LC-MS/MS, proteins ranked by Score Sequest

Chains of the proteins cited; added tags and fusions are not shown.
UniProt P21333: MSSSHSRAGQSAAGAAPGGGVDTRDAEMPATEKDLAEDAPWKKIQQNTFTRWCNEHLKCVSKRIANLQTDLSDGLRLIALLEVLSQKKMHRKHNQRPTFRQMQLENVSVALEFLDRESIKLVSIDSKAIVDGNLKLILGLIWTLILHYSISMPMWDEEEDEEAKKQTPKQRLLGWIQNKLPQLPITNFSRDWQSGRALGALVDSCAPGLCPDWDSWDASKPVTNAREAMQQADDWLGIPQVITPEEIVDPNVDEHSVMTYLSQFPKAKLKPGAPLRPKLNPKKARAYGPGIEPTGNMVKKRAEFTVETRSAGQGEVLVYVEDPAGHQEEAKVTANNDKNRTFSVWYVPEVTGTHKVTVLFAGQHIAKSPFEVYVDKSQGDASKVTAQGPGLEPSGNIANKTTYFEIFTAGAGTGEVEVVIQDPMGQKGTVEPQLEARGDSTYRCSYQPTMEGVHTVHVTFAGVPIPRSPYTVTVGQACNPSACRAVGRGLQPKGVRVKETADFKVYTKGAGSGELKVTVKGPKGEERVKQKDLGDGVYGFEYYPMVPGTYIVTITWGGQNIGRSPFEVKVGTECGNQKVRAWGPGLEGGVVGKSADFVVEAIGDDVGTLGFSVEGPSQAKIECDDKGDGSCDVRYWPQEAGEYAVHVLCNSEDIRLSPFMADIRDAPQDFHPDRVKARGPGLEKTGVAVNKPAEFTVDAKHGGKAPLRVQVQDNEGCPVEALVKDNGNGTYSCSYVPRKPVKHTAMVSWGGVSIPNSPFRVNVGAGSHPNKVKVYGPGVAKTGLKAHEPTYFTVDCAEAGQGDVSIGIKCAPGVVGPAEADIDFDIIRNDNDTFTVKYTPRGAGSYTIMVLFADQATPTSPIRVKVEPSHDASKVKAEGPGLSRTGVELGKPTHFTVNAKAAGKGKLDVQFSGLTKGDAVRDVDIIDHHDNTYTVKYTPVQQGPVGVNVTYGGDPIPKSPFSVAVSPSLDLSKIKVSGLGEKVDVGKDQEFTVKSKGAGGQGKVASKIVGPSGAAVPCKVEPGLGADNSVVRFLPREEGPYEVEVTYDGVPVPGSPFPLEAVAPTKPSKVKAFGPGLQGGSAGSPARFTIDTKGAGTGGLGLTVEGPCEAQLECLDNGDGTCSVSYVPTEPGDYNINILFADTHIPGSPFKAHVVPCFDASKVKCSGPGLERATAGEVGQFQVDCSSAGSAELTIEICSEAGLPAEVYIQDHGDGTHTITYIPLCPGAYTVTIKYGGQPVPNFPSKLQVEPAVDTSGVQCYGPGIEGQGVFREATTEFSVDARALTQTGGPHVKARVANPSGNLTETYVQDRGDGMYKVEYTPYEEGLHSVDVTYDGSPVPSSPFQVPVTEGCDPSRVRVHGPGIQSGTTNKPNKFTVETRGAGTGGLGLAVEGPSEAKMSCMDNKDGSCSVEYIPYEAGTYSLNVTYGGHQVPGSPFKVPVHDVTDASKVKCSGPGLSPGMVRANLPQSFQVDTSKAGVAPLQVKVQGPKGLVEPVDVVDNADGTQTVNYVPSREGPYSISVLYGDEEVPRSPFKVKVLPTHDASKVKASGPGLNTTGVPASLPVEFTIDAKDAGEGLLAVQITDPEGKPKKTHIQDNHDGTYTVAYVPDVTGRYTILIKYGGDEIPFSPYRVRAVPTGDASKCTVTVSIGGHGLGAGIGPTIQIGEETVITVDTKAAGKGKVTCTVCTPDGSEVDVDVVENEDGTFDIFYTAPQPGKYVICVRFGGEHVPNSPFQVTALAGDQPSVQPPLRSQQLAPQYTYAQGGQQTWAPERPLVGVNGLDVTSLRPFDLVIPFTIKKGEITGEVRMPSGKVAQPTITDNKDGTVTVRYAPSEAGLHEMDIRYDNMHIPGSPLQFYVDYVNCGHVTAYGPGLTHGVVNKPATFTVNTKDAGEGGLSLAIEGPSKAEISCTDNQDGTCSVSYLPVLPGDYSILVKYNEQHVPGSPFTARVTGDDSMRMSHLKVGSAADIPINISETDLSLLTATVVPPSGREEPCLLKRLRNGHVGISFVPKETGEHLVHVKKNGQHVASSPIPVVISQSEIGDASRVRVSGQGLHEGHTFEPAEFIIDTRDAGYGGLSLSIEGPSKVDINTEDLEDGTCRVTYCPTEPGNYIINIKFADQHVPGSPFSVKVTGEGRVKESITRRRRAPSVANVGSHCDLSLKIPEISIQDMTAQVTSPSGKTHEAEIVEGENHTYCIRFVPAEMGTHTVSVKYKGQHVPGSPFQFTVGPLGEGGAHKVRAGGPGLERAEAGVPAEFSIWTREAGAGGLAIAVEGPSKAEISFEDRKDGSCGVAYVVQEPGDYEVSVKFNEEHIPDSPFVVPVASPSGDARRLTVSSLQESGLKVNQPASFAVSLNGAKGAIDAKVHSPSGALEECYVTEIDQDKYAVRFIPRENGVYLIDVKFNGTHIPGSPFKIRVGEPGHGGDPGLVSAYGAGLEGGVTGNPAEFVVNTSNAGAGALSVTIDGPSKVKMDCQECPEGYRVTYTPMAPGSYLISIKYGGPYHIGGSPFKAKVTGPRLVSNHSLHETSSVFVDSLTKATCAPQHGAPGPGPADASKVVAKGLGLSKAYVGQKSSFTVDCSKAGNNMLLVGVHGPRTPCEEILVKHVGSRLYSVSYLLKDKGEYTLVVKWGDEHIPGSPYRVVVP

binding: binds
Substance: filamin-A (from UniProt P21333 1-2647)

Reference: publication PMC9358705
